Experimental findings from PMC8620709 are described below.

These are yes or no findings as the source states them, for the method shown. In cells and extracts the contact can be indirect. For some assays here: Binding calls can cover weak binding; strength is not graded here.

For experiment [1], the target named is T1, cytosolic phospholipase A2 alpha (mouse (endogenous in spinal cord)) (UniProt P47713).
T1 sequence: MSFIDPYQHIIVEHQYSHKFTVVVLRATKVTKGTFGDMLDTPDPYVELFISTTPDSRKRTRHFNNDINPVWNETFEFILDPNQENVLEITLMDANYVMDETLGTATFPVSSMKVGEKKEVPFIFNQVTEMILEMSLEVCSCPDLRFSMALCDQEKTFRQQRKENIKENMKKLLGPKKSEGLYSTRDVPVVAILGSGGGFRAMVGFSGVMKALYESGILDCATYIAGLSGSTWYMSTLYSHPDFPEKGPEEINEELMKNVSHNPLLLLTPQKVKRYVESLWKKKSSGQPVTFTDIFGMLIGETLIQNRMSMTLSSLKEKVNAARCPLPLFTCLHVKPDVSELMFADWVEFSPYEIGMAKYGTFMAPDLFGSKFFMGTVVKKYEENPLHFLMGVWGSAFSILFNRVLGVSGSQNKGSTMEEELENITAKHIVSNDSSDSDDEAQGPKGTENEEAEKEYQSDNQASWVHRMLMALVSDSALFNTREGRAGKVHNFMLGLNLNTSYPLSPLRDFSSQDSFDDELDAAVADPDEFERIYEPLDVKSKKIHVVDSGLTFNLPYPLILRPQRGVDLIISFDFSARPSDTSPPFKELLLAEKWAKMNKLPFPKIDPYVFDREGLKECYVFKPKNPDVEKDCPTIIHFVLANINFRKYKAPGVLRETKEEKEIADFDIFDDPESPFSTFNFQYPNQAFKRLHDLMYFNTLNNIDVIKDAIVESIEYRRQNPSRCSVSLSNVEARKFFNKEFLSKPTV
In words: co-IP; spinal cord lysates (100 µg) of SOD1^G93A mice at disease onset (13 weeks), symptomatic stage (18 weeks) or end stage; IP buffer (50 mM Tris-HCl pH 7.4, 150 mM NaCl, 1 mM EDTA, 0.5% Nonidet P-40); overnight with cPLA2α antibodies cross-linked to magnetic beads; blot for cPLA2α and mutant ….

Experiment [2] deals with T1, cytosolic phospholipase A2 alpha (mouse (endogenous in spinal cord)). Nature of the experiment: condition: only spinal cord lysates of 6 weeks old mice; co-IP; spinal cord lysates (100 µg) of 6 weeks old pre-symptomatic SOD1^G93A mice; IP buffer (50 mM Tris-HCl pH 7.4, 150 mM NaCl, 1 mM EDTA, 0.5% Nonidet P-40); overnight with cPLA2α antibodies cross-linked to magnetic beads; blot for cPLA2α and mutant SOD1.

For “mutant SOD1^G93A (human Cu/Zn superoxide dismutase with G93A)”, the results for the binding entry in experiment [1] and in experiment [2] were “binds” and “no binding”, respectively.
